This note sets out measurements from paper PMC8509050, “BZR1 Physically Interacts with SPL9 to Regulate the Vegetative Phase Change and Cell Elongation in Arabidopsis” (International Journal of Molecular Sciences, 2021).

No constants are given. Whether binding was seen depends on the method and setting. Binding can be weak; no strength is given. Sequences can lack the tags named with a protein.

In this experiment the target is T1, SQUAMOSA PROMOTER BINDING PROTEIN-LIKE9 (SPL9), GAL4BD fusion (Arabidopsis thaliana) (UniProt Q700W2).
T1 sequence: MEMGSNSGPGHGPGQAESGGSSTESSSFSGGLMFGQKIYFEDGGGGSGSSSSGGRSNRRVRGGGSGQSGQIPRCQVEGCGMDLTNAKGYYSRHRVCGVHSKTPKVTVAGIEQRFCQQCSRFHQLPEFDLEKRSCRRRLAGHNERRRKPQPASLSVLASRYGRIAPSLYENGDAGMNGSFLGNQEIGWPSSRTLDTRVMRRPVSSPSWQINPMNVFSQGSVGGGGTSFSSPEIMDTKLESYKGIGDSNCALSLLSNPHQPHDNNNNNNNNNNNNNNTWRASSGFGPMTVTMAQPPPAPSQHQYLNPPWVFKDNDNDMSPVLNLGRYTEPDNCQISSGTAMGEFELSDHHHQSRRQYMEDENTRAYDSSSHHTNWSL
Briefly: two-hybrid; direct test in yeast, SPL9 as GAL4BD fusion against BZR1, BES1, BIN2 and fragments of BZR1; growth on SD medium.
Consider “BZR1-C (carboxy-terminal domain of BZR1), two-hybrid fusion (Arabidopsis thaliana) (domain or fragment)”, for which the binding entry is listed as “binds”.

Consider “BZR1-N (amino-terminal DNA binding domain of BZR1), two-hybrid fusion (Arabidopsis thaliana) (domain or fragment)”, for which the binding result is on record as “no binding”.

In the case of “PEST domain of BZR1, two-hybrid fusion (Arabidopsis thaliana) (domain or fragment)”, the binding entry was “binds weakly”.
